Experimental data from PMC12282580 (RSC Advances, 2025).

Tested on: SW620 cells (colon cancer)
Experiment: Cytotoxicity assay
Format: cell-based
Conditions: Homo sapiens, SW-620, 48 h, read-out: Cytotoxicity (IC50) SW620

Molecule O=C(CCCCCCC(=O)Nc1ccccc1)NO [SAHA, suberoylanilide hydroxamic acid, reference compound] has an IC50 of 2080 ± 350 nM.
